Laboratory results as given in patent US8188306B2, “Heat shock protein 90 inhibitors” (University of Kansas, priority 2004, dated 2012).
For at least one compound, name, drawing or mass did not settle the structure.

System: Hsp90-dependent client proteins, Raf and HER-2
Test: Western Blot of Hsp90-dependent client proteins in MCF-7 breast cancer cells
Type: cell-based
Details: increasing concentrations

## COC(=O)c1c(O)cc(O)c(Cl)c1CCC(=O)NC1=CC(=O)C(OC)=CC1=O [Quinone]
  Hsp90-dependent client proteins Raf and HER-2 by Western Blot: decrease
